Laboratory results reported in PubChem BioAssay (NCATS).
This is one part of the list. These are further read-outs of the screen, such as a control signal, another cell line or another target. No call is given for them. The list favours compounds with an active or inconclusive main result. Potencies come from curve fits of mixed quality, noted in brackets.

Assay: Validation of Assay for Modulators of Lamin A Splicing (AID 1459)
Conditions: Lamin A splicing dual RFP/GFP fluorescence reporter, ratio; measured here: RFP channel
In short: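 S3 HeLa stably expressing lamin A-EGFP splicing minigene and DsRed2, 600 cells/well in Opti-MEM with 2% FBS, treated 48 h at 37C; laser-scanning cytometry gives GFP/RFP total intensity ratio; ancitabine positive control, 0.5% DMSO vehicle.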
In the case of `COc1ccc(NC(=O)/C=C/c2ccc(Cl)cc2)cc1`, the AC50 is reported as 15.8 µM [rising, single point]. With `OC[C@H]1O[C@@H](n2cnc3cncnc32)[C@H](O)[C@@H]1O` the AC50 was 17.8 µM [rising, single point]. With `CN1CCN(CCCN2c3ccccc3Sc3ccc(C(F)(F)F)cc32)CC1` the AC50 was 35.5 µM [falling, single point]. For `CC(=O)SC1CC2=CC(=O)CC[C@]2(C)C2CC[C@@]3(C)[C@@H](CC[C@@]34CCC(=O)O4)C12` (stereo partly drawn), the AC50 was 11.2 µM [falling, partial curve]. For `COC(=O)Nc1nc2ccc(C(=O)c3cccs3)cc2[nH]1`, the AC50 was 0.316 µM [falling, full curve]. In the case of `N[C@@H](CC(=O)O)C(=O)O`, the AC50 is reported as 35.5 µM [falling, single point]. With `CC(C)(C)NCC(O)COc1cccc2[nH]c(=O)[nH]c12` (stereo not drawn) the AC50 was 35.5 µM [falling, single point]. In the case of `NCC(O)C1CCCCCCC1` (stereo not drawn), the AC50 is reported as 1.58 µM [falling, full curve, poor fit]. With `C[C@H]1c2cccc(O)c2C(O)=C2C(=O)[C@]3(O)C(O)=C(C(N)=O)C(=O)C(N(C)C)[C@@H]3[C@@H](O)C21` (stereo partly drawn) the AC50 was 3.55 µM [falling, single point]. For `CCOC(=O)N1CCC(=C2c3ccc(Cl)cc3CCc3cccnc32)CC1`, the AC50 was 15.8 µM [falling, partial curve]. With `O=c1cc(-c2ccc(O)cc2)oc2cc(O)cc(O)c12` the AC50 was 12.6 µM [falling, partial curve]. In the case of `CCCCOc1cc(CC2CNC(=O)N2)ccc1OC` (stereo not drawn), the AC50 is reported as 22.4 µM [rising, single point]. With `CC(=O)OCC1=C(C(=O)O)N2C(=O)[C@@H](NC(=O)Cc3cccs3)[C@H]2SC1` the AC50 was 35.5 µM [rising, single point]. For `O=C1C(SCCO)=C(SCCO)C(=O)c2ccccc21`, the AC50 was 3.55 µM [falling, full curve]. For `CC(=O)[C@]1(O)Cc2c(O)c3c(c(O)c2[C@@H](O[C@H]2C[C@H](N)[C@H](O)[C@H](C)O2)C1)C(=O)c1ccccc1C3=O`, the AC50 was 0.251 µM [falling, full curve]. For `CCCCCCCCCCCCCCCCCCNC(=O)OCC(COP(=O)([O-])OCC[n+]1ccsc1)OC` (stereo not drawn), the AC50 was 25.1 µM [falling, single point]. For `COC1=C(OC)C(=O)c2ccccc2C1=O`, the AC50 was 5.01 µM [falling, full curve]. With `NS(=O)(=O)c1cc2c(cc1Cl)NC(C1CC3C=CC1C3)NS2(=O)=O` (stereo not drawn) the AC50 was 6.31 µM [falling, single point]. In the case of `O=C(Nc1cccc(C(=O)Nc2ccc(S(=O)(=O)O)c3cc(S(=O)(=O)O)cc(S(=O)(=O)O)c23)c1)Nc1cccc(C(=O)Nc2ccc(S(=O)(=O)O)c3cc(S(=O)(=O)O)cc(S(=O)(=O)O)c23)c1`, the AC50 is reported as 5.62 µM [falling, single point]. With `CN(C)CCCN1c2ccccc2Sc2ccc(C(F)(F)F)cc21` the AC50 was 15.8 µM [falling, partial curve]. For `Cc1scc2c1N(C(=O)CN1CCN(C)CC1)c1ccccc1NC2=O`, the AC50 was 5.62 µM [falling, full curve]. With `CC/C(=C(\c1ccccc1)c1ccc(OCCN(C)C)cc1)c1ccccc1` the AC50 was 25.1 µM [falling, partial curve]. In the case of `NCCCS(=O)(=O)O`, the AC50 is reported as 15.8 µM [rising, single point]. For `C[C@]12CC[C@@H]3c4ccc(O)cc4CC[C@H]3[C@@H]1CCC2=O`, the AC50 was 28.2 µM [rising, single point]. For `C[C@@H]1C(=O)NC2=Nc3cccc(Cl)c3CN21`, the AC50 was 0.398 µM [rising, full curve, poor fit]. For `CC(C)(Sc1ccc(CCN(CCCCC2CCCCC2)C(=O)NC2CCCCC2)cc1)C(=O)O`, the AC50 was 17.8 µM [falling, partial curve]. For `COc1cc2ncnc(Nc3cccc(Cl)c3)c2cc1OC`, the AC50 was 12.6 µM [falling, partial curve]. With `CC(C)c1ccc2c(c1)c(SC(C)(C)C)c(CC(C)(C)C(=O)O)n2Cc1ccc(Cl)cc1` the AC50 was 11.2 µM [falling, partial curve]. In the case of `Oc1ccc(/C=C/c2cc(O)cc(O)c2)cc1`, the AC50 is reported as 12.6 µM [falling, single point]. With `Oc1ccc(-c2nc(-c3ccc(F)cc3)c(-c3ccncc3)[nH]2)cc1` the AC50 was 1.12 µM [falling, full curve]. In the case of `CCCCCCCCCCCCCCCC(=O)NCC(COP(=O)([O-])OCC[N+](C)(C)C)OCC` (stereo not drawn), the AC50 is reported as 5.01 µM [falling, partial curve]. With `O=C1CCC(c2ccc(-n3ccnc3)cc2)=NN1` the AC50 was 3.55 µM [rising, partial curve]. With `C[n+]1cc2c3c(ccc2c2ccc4cc5c(cc4c21)OCO5)OCO3` the AC50 was 0.562 µM [falling, full curve]. With `Oc1cc(O)cc(/C=C/c2ccc(O)c(O)c2)c1` the AC50 was 14.1 µM [falling, partial curve]. With `Fc1ccc(C(c2ccc(F)cc2)N2CCN(C/C=C/c3ccccc3)CC2)cc1` the AC50 was 25.1 µM [falling, single point]. In the case of `O=C1c2c(O)ccc(O)c2C(=O)c2c(NCCNCCO)ccc(NCCNCCO)c21`, the AC50 is reported as 7.08 µM [falling, partial curve, poor fit]. In the case of `O=C(Nc1ccc([N+](=O)[O-])cc1Cl)c1cc(Cl)ccc1O`, the AC50 is reported as 1.58 µM [rising, full curve]. With `N[C@H](C(=O)O)c1cc(O)cc(O)c1` the AC50 was 22.4 µM [falling, partial curve].
